From article PMC9556433

Molecular target: Artemisia calmodulin (ArtCaM) (Artemisia (A. sieversiana and A. lavandulifolia))
Experiment: co-IP; Co-IP between ArtCaM and DCs; told only in the discussion, no methods, detection or conditions given; only the target purified

binding: binds
B1: pattern recognition receptors adaptor protein (WDFY1) (protein, UniProt Q8IWB7 1-410)
chain: MAAEIHSRPQSSRPVLLSKIEGHQDAVTAALLIPKEDGVITASEDRTIRVWLKRDSGQYWPSIYHTMASPCSAMAYHHDSRRIFVGQDNGAVMEFHVSEDFNKMNFIKTYPAHQNRVSAIIFSLATEWVISTGHDKCVSWMCTRSGNMLGRHFFTSWASCLQYDFDTQYAFVGDYSGQITLLKLEQNTCSVITTLKGHEGSVACLWWDPIQRLLFSGASDNSIIMWDIGGRKGRTLLLQGHHDKVQSLCYLQLTRQLVSCSSDGGIAVWNMDVSREEAPQWLESDSCQKCEQPFFWNIKQMWDTKTLGLRQHHCRKCGQAVCGKCSSKRSSYPVMGFEFQVRVCDSCYDSIKDEDRTSLATFHEGKHNISHMSMDIARGLMVTCGTDRIVKIWDMTPVVGCSLATGFSPH

No constants are given. Whether binding was seen depends on the method and setting. In cells and extracts the contact can be indirect. Binding can be weak; no strength is given.
